Two substances from article PMC10965847 (EJNMMI Radiopharmacy and Chemistry, 2024) can be followed below.

Some peptides are written in HELM: one residue between dots, names in brackets for other building blocks, links after the first $.

Series [1] in a line: general procedure: Fmoc solid-phase peptide synthesis; Rink amide AM resin (loading capacity 0.67 mmol/g); HBTU/DiPEA. The settings on record: late stage modification step, 220 nm.
The nature of series [2]: general procedure: Fmoc solid-phase peptide synthesis; Rink amide resin; HBTU/DiPEA. The settings on record: whole synthesis, HPLC (Shimadzu), 220 nm.

Consider “PEPTIDE1{T.G.R.A.K.R.R.M.Q.Y.N.R.R.G.[Cys(APBA)].[am]}$$$$V2.0”, for which, in series [1], the “final HPLC purity” value is recorded as greater than 95%.

Consider “PEPTIDE1{T.G.R.A.K.R.R.M.Q.Y.N.R.R.G.C.[am]}$$$$V2.0”, for which the “final HPLC purity” value in series [2] is reported as greater than 95%.
